Assay results as given in patent US12377112B2, “Methods of treating neurocognitive disorders, chronic pain and reducing inflammation” (priority 2019, dated 2025).
At least one structure is not confirmed: it was looked up by name or label, or the drawing left a doubt.

Columns and labels:
[1] = tested on: plasma proteins (Olink panel); assay: Olink panel: plasma protein expression after one administration in naïve mice; type: in vivo, mouse
healthy subjects [2] = assay: Phase 1 study: Social Cognition Panel (PET, RMET, SSR, SVO, TEQ); type: in vivo, human; details: 10 mg and 25 mg, Day 7 and Day 84
Description: In some embodiments, Social Cognition Panel scales are utilized to evaluate the safety and/or efficacy of psilocybin. The social cognition panel scales comprise the pictorial empathy test (PET), reading the mind in the eyes test (RMET), social value orientation (SVO) test, the Toronto Empathy Questionnaire (TEQ), and the scale of social responsibility (SSR).
In some embodiments, the Pictorial Empathy Test (PET) is utilized to evaluate the effect of psilocybin on affective empathy.
In some embodiments, Reading the Mind in the Eyes Test (RMET) is utilized to evaluate the safety and/or efficacy of psilocybin. The RMET has 36 items, in which subjects are presented with a photograph of the eyes region of the face and must choose 1 of 4 adjectives or phrases to describe the mental state of the person pictured. A definition handout is provided at the beginning of the task and a practice item precedes the first trial. […]
The Pictorial Empathy Test (PET), Reading the Mind in the Eyes Test (RMET), Scale of Social Responsibility (SSR), Social Value Orientation (SVO), and Toronto Empathy Questionnaire (TEQ) were performed. Table 28 summarizes the results of the mixed model for repeated measures (MMRM) analysis for each of the aforementioned social cognition panel scales measured on Day 7 and Day 84 after study drug administration.

VPA mice [3] = assay: Valproic acid (VPA) model of ASD: three-chamber test; type: in vivo, mouse; details: 1 mg/kg, 24 hours, trend level
VPA mice [4] = assay: VPA model of ASD: social novelty preference test; type: in vivo, mouse; details: 1 mg/kg, 24 hours
male CD1 mice = assay: Pentylenetetrazol (PTZ) infusion seizure threshold; type: in vivo, mouse; details: 10 mg/kg IP
Description: Administration of chemical convulsant agents such as Pentylenetetrazol (PTZ) are used to mimic behavioral aspects of human epilepsy. PTZ causes myoclonic jerking movements, clonic convulsions or forelimb/hindlimb tonic extension in rodents. The PTZ model is primarily used to evaluate anti-convulsant properties of antiepileptic drugs (AED's) by identifying compounds which raise seizure threshold but can also be used to identify pro-convulsant agents that lower seizure threshold. PTZ is a well-established model for acute and repetitive seizures, and is accepted for use for screening AED action. PTZ induces myoclonic and generalized tonic-clonic seizures.
Male CD1 mice (age 6-8 weeks, weight 30.0-42.9 g, source: Charles River UK) were used in this study. […] During this time-infusion, mice were individually assessed for the onset of myoclonic, forelimb tonus and hindlimb tonus seizures. The latencies (in seconds) from start of infusion to the appearance of first myoclonus, forelimb tonic and hind limb tonic extension were recorded. […] For animals reaching this cut off, the dose of PTZ in mg/kg infused over the 120 s was calculated as the threshold dose. […]
Data was analysed using one way ANOVA in which the dose of PTZ required to induce seizure was compared between each treatment groups and vehicle. […]

mice = assay: Marble burying test; type: in vivo, mouse; details: 10 mg/kg IP, 1 hour post-treatment
healthy subjects [5] = assay: Phase 1 study: CANTAB PAL, SWM and global composite; type: in vivo, human; details: for SWMS performance versus placebo: Day 28
VPA mice [6] = assay: VPA model of ASD: self-grooming repetitive behavior; type: in vivo, mouse; details: 3 mg/kg, 24 hours

CN(C)CCc1c[nH]c2cccc(OP(=O)(O)O)c12 [Psilocybin, psilocybin]
Plxna4 expression levels ([1]; 1 mg/kg, 24 hours): significantly increased | FIrt2 expression levels ([1]; 3 mg/kg, 24 hours): significantly decreased | Protein expression of Fas ([1]; 10 mg/kg, 1 hour): increased | Protein expression of glucagon (Gcg) ([1]; 10 mg/kg, 1 hour): increased | S100a4 expression levels ([1]; 10 mg/kg, 1 hour): significantly increased | TGFa expression levels ([1]; 10 mg/kg, 1 hour): significantly increased | Vsig2 expression levels ([1]; 10 mg/kg, 1 hour): significantly decreased | Clnstn2 expression levels ([1]; 10 mg/kg, 24 hours): significantly decreased | FIrt2 expression levels ([1]; 10 mg/kg, 24 hours): significantly decreased | Protein expression of Erbb4 ([1]; 10 mg/kg, 24 hours): increased | Protein expression of Rgma ([1]; 10 mg/kg, 24 hours): significantly decreased | Vsig2 expression levels ([1]; 10 mg/kg, 24 hours): significantly decreased | Expression of CXCL1 vs vehicle ([1]; 10 mg/kg, 8 days post administration): statistically significant reduction | Plasma level of Activin A Receptor Type II-like kinase 1 (Acvrl1) ([1]; naïve mice, 1, 3 or 10 mg/kg): induced favorable changes | Plasma level of Glucagon (Gcg) ([1]; naïve mice, 1, 3 or 10 mg/kg): induced favorable changes | Plasma level of Receptor protein kinase erbB4 (Erbb4) ([1]; naïve mice, 1, 3 or 10 mg/kg): induced favorable changes | Plasma level of Tenascin-R (Tnr) ([1]; naïve mice, 1, 3 or 10 mg/kg): induced favorable changes | Plasma level of Transforming growth factor beta receptor type 3 (Tfgbr3) ([1]; naïve mice, 1, 3 or 10 mg/kg): induced favorable changes | PET, RMET, SSR, SVO, TEQ versus placebo (healthy subjects [2]): no difference | Three-chamber task: total interaction time vs VPA saline (VPA mice [3]): increased total interaction time | Social novelty preference: total interaction time with novel vs familiar mouse (VPA mice [4]): significantly increased total interaction time | Dose of PTZ required to induce hind limb tonic seizures vs vehicle (male CD1 mice): significantly increased | Number of marbles buried vs vehicle PS (mice): significantly reduced | PALTEA performance, Baseline to Day 28 (healthy subjects [5]; 10 mg and 25 mg): numeric improvement in performance | CANTAB global composite score over time (healthy subjects [5]; 10 mg and 25 mg, Baseline to Day 28): improvement in performance over time | SWMBE LS mean difference versus placebo (healthy subjects [5]; 10 mg, Day 7 and Day 28): performed less well on average than the placebo group | SWMS performance versus placebo (healthy subjects [5]; 10 mg): slightly worse | CANTAB composite, LS means estimate (healthy subjects [5]; 10 mg, subjects previously exposed to psilocybin only): improvement from Baseline to Day 28 | SWMS LS mean difference versus placebo (healthy subjects [5]; 25 mg and 10 mg, Day 7): performed similar to placebo | SWMS performance versus placebo (healthy subjects [5]; 25 mg): slightly better | CANTAB composite (healthy subjects [5]; 25 mg, irrespective of previous psilocybin exposure): an improvement to Day 28 was observed | Performance on CANTAB tasks as a result of psilocybin exposure (healthy subjects [5]; 28-day study, 10 mg and 25 mg): no evidence of improvement or deterioration | Total self-grooming time vs VPA saline (VPA mice [6]): considerably reduced
